Marks after values point to notes of the source that are not given here.
Key:
[1] = tested on: triceps brachii beef muscles; test: NAD and NADH content, pre-rigor injection of whole muscle; conditions: for NAD, 0 h / NADH, 0 h: 0 h (before injection); for NAD, 24 h / NADH, 24 h / NAD, 72 h / NADH, 72 h: 200 mM, calcium chloride 300 mM
[2] = tested on: semimembranosus beef muscles; test: as above; conditions: for NAD, 0 h / NADH, Oh: 0 h (before injection); for NAD, 24 h / NADH, 24 h / NAD, 72 h / NADH, 72 h: 200 mM, calcium chloride 300 mM
[3] = tested on: semimembranosus beef muscles; test: Sarcomere length, pre-rigor injection of whole muscle; conditions: 72 hours post-mortem, 200 mM, calcium chloride 300 mM
[4] = tested on: supraspinatus beef muscles; test: NAD and NADH content, pre-rigor injection of whole muscle; conditions: for NAD, 0 h / NADH, 0 h: 0 h (before injection); for NAD, 24 h / NADH, 24 h / NAD, 72 h / NADH, 72 h: 200 mM, calcium chloride 300 mM
[5] = tested on: supraspinatus beef muscles; test: R-value, pre-rigor injection of whole muscle; conditions: for R-value, 0 h: 0 h (before injection), ratio of hypoxantine to nucleotides; for R-value, 24 h / R-value, 72 h: 200 mM, calcium chloride 300 mM
[6] = tested on: supraspinatus beef muscles; test: Objective color, pre-rigor injection of whole muscle; conditions: for L*value, 0 h / a*value, 0 h / b*value, 0 h: 0 h (before injection); for L*value, 0 h / L*value, 24 h / L*value, 72 h: lightness; for a*value, 0 h / a*value, 24 h / a*value, 72 h: redness; for b*value, 0 h / b*value, 24 h / b*value, 72 h: yellowness; for L*value, 24 h / a*value, 24 h / b*value, 24 h / L*value, 72 h / a*value, 72 h / b*value, 72 h: 200 mM, calcium chloride 300 mM
[7] = tested on: triceps brachii beef muscles; test: R-value, pre-rigor injection of whole muscle; conditions: 200 mM, calcium chloride 300 mM
[8] = tested on: supraspinatus beef muscles; test: Oxidation-reduction potential, pre-rigor injection of whole muscle; conditions: for Redox potential, 0 h: 0 h (before injection); for Redox potential, 24 h / Redox potential, 72 h: 200 mM, calcium chloride 300 mM
[9] = tested on: triceps brachii beef muscles; test: as above; conditions: 200 mM, calcium chloride 300 mM
[10] = tested on: semimembranosus beef muscles; test: as above; conditions: for Redox potential, 0 h: 0 h (before injection); for Redox potential, 24 h / Redox potential, 72 h: 200 mM, calcium chloride 300 mM
[11] = tested on: triceps brachii beef muscles; test: Water holding capacity, pre-rigor injection of whole muscle; conditions: 200 mM, calcium chloride 300 mM
[12] = tested on: semimembranosus beef muscles; test: as above; conditions: 200 mM, calcium chloride 300 mM
[13] = tested on: triceps brachii beef muscles; test: Sarcomere length, pre-rigor injection of whole muscle; conditions: 72 hours after injection; 200 mM, calcium chloride 300 mM
[14] = tested on: semimembranosus beef muscles; test: R-value, pre-rigor injection of whole muscle; conditions: for R-value, 0 h: 0 h (before injection), ratio of hypoxantine to nucleotides; for R-value, 72 h: 200 mM, calcium chloride 300 mM
[15] = tested on: triceps brachii beef muscles; test: Objective color, pre-rigor injection of whole muscle; conditions: for L*value, 0 h / a*value, 0 h / b*value, 0 h: 0 h (before injection); for L*value, 0 h / L*value, 24 h / L*value, 72 h: lightness; for a*value, 0 h / a*value, 24 h: redness; for b*value, 0 h / b*value, 24 h / b*value, 72 h: yellowness; for L*value, 24 h / a*value, 24 h / b*value, 24 h / L*value, 72 h / b*value, 72 h: 200 mM, calcium chloride 300 mM

CC(=O)[O-].[Na+] [Sodium acetate, sodium acetate]
NAD, 0 h [1]: .442 μmol/g tissue | NADH, 0 h [1]: .087 μmol/g tissue | NAD, 24 h [1]: .258^a μmol/g tissue | NADH, 24 h [1]: .076 μmol/g tissue | NAD, 72 h [1]: .141^a μmol/g tissue | NADH, 72 h [1]: .059 μmol/g tissue | NAD, 0 h [2]: .582 μmol/g tissue | NADH, Oh [2]: .124 μmol/g tissue | NAD, 24 h [2]: .410^a μmol/g tissue | NADH, 24 h [2]: .090^b μmol/g tissue | NAD, 72 h [2]: .192^a μmol/g tissue | NADH, 72 h [2]: .079^c μmol/g tissue | Sarcomere length [3]: 1.74^ab μm | NAD, 0 h [4]: .355 μmol/g tissue | NADH, 0 h [4]: .073 μmol/g tissue | NAD, 24 h [4]: .212^a μmol/g tissue | NADH, 24 h [4]: .064 μmol/g tissue | NAD, 72 h [4]: .113^a μmol/g tissue | NADH, 72 h [4]: .058^c μmol/g tissue | R-value, 0 h [5]: .84 | R-value, 24 h [5]: 1.30 | R-value, 72 h [5]: 1.41 | L*value, 0 h [6]: 20.75 | a*value, 0 h [6]: 15.69 | b*value, 0 h [6]: 2.69 | L*value, 24 h [6]: 31.37 | a*value, 24 h [6]: 22.65^ab | b*value, 24 h [6]: 6.14^ab | L*value, 72 h [6]: 33.68 | a*value, 72 h [6]: 21.67 | b*value, 72 h [6]: 6.16 | R-value, 24 h [7]: 1.31 | R-value, 72 h [7]: 1.40 | Redox potential, 0 h [8]: 121.53 mV | Redox potential, 24 h [8]: 130.37 mV | Redox potential, 72 h [8]: 134.90 mV | Redox potential, 24 h [9]: 129.13 mV | Redox potential, 72 h [9]: 139.27 mV | Redox potential, 0 h [10]: 122.35 mV | Redox potential, 24 h [10]: 134.20^a mV | Redox potential, 72 h [10]: 142.75^a mV | WHC, 72 h (Water Holding Capacity) [11]: 36.36% | WHC, 72 h (Water Holding Capacity) [12]: 39.35% | Sarcomere length [13]: 1.53^b μm | R-value, 0 h [14]: .82 | R-value, 72 h [14]: 1.39 | L*value, 0 h [15]: 17.72 | a*value, 0 h [15]: 15.70 | b*value, 0 h [15]: 2.88 | L*value, 24 h [15]: 28.37 | a*value, 24 h [15]: 25.08 | b*value, 24 h [15]: 6.55 | L*value, 72 h [15]: 31.36 | b*value, 72 h [15]: 6.38

O=C([O-])CC(O)(CC(=O)[O-])C(=O)[O-].[Na+].[Na+].[Na+] [Sodium citrate, sodium citrate]
NAD, 0 h [1]: .421 μmol/g tissue | NADH, 0 h [1]: .093 μmol/g tissue | NAD, 24 h [1]: .269^a μmol/g tissue | NADH, 24 h [1]: .067 μmol/g tissue | NAD, 72 h [1]: .146^a μmol/g tissue | NADH, 72 h [1]: .051 μmol/g tissue | NAD, 0 h [2]: .568 μmol/g tissue | NADH, Oh [2]: .121 μmol/g tissue | NAD, 24 h [2]: .306^b μmol/g tissue | NADH, 24 h [2]: .072^a μmol/g tissue | NAD, 72 h [2]: .173^ab μmol/g tissue | NADH, 72 h [2]: .066^b μmol/g tissue | Sarcomere length [3]: 1.72^ab μm | NAD, 0 h [4]: .387 μmol/g tissue | NADH, 0 h [4]: .073 μmol/g tissue | NAD, 24 h [4]: .148^ab μmol/g tissue | NADH, 24 h [4]: .056 μmol/g tissue | NAD, 72 h [4]: .098^ab μmol/g tissue | NADH, 72 h [4]: .035^a μmol/g tissue | R-value, 0 h [5]: .84 | R-value, 24 h [5]: 1.27 | R-value, 72 h [5]: 1.38 | L*value, 0 h [6]: 21.99 | a*value, 0 h [6]: 17.50 | b*value, 0 h [6]: 3.68 | L*value, 24 h [6]: 29.88 | a*value, 24 h [6]: 22.83^ab | b*value, 24 h [6]: 6.29^ab | L*value, 72 h [6]: 30.51 | a*value, 72 h [6]: 20.87 | b*value, 72 h [6]: 5.59 | R-value, 24 h [7]: 1.30 | R-value, 72 h [7]: 1.36 | Redox potential, 0 h [8]: 124.37 mV | Redox potential, 24 h [8]: 118.17 mV | Redox potential, 72 h [8]: 125.05 mV | Redox potential, 24 h [9]: 125.05 mV | Redox potential, 72 h [9]: 133.65 mV | Redox potential, 0 h [10]: 124.55 mV | Redox potential, 24 h [10]: 128.85^a mV | Redox potential, 72 h [10]: 132.67^bc mV | WHC, 72 h (Water Holding Capacity) [11]: 37.76% | WHC, 72 h (Water Holding Capacity) [12]: 41.99% | Sarcomere length [13]: 1.62^b μm | R-value, 0 h [14]: .83 | R-value, 72 h [14]: 1.38 | L*value, 0 h [15]: 22.22 | a*value, 0 h [15]: 14.38 | b*value, 0 h [15]: 2.89 | L*value, 24 h [15]: 28.52 | a*value, 24 h [15]: 24.54 | b*value, 24 h [15]: 6.56 | L*value, 72 h [15]: 29.56 | b*value, 72 h [15]: 5.73

[F-].[Na+] [Sodium fluoride, sodium fluoride, reference compound]
NAD, 0 h [1]: .450 μmol/g tissue | NADH, 0 h [1]: .078 μmol/g tissue | NAD, 24 h [1]: .261^a μmol/g tissue | NADH, 24 h [1]: .060 μmol/g tissue | NAD, 72 h [1]: .113^a μmol/g tissue | NADH, 72 h [1]: .055 μmol/g tissue | NAD, 0 h [2]: .551 μmol/g tissue | NADH, Oh [2]: .130 μmol/g tissue | NAD, 24 h [2]: .281^b μmol/g tissue | NADH, 24 h [2]: .098^b μmol/g tissue | NAD, 72 h [2]: .096^c μmol/g tissue | NADH, 72 h [2]: .061^ab μmol/g tissue | Sarcomere length [3]: 1.53^bc μm | Sarcomere length ([3]; listed as NaF): 1.53 μm | NAD, 0 h [4]: .384 μmol/g tissue | NADH, 0 h [4]: .078 μmol/g tissue | NAD, 24 h [4]: .216^a μmol/g tissue | NADH, 24 h [4]: .056 μmol/g tissue | NAD, 72 h [4]: .078^a μmol/g tissue | NADH, 72 h [4]: .045^b μmol/g tissue | R-value, 0 h [5]: .79 | R-value, 24 h [5]: 1.28 | R-value, 72 h [5]: 1.37 | L*value, 0 h [6]: 22.55 | a*value, 0 h [6]: 15.23 | b*value, 0 h [6]: 2.81 | L*value, 24 h [6]: 28.71 | a*value, 24 h [6]: 20.78^a | b*value, 24 h [6]: 5.32^a | L*value, 72 h [6]: 28.21 | a*value, 72 h [6]: 16.66 | b*value, 72 h [6]: 5.41 | R-value, 24 h [7]: 1.28 | R-value, 72 h [7]: 1.38 | Redox potential, 0 h [8]: 124.17 mV | Redox potential, 24 h [8]: 131.45 mV | Redox potential, 72 h [8]: 136.70 mV | Redox potential, 24 h [9]: 131.35 mV | Redox potential, 72 h [9]: 139.78 mV | Redox potential, 0 h [10]: 125.95 mV | Redox potential, 24 h [10]: 130.07^a mV | Redox potential, 72 h [10]: 140.70^ab mV | WHC, 72 h (Water Holding Capacity) [11]: 35.27% | WHC, 72 h (Water Holding Capacity) [12]: 38.22% | Sarcomere length [13]: 1.41^b μm | R-value, 0 h [14]: .85 | R-value, 72 h [14]: 1.42 | L*value, 0 h [15]: 20.76 | a*value, 0 h [15]: 16.23 | b*value, 0 h [15]: 3.17 | L*value, 24 h [15]: 29.58 | a*value, 24 h [15]: 22.40 | b*value, 24 h [15]: 6.05 | L*value, 72 h [15]: 28.26 | b*value, 72 h [15]: 6.39
